No constants are given. Whether binding was seen depends on the method and setting. Binding seen in cells or lysates may run through a third protein. These calls come from enrichment with a bait or labelling near it, and not all partners need be listed. A no says only that the protein was not detected with the bait.
Each substance was assayed against T1, SMC-mCherry (Corynebacterium glutamicum) (UniProt Q8NNW5) (assay: affinity purification with mass spectrometry; anti-mCherry pulldown with magnetic RFP-Trap agarose beads, 1 h in lysate of exponentially grown C. glutamicum, 4 °C, washing buffer 10 mM Tris-HCl pH 7.5, 150 mM NaCl, 0.5 mM EDTA; LC-MS/MS; free mCherry strain CBK052 as negative control).
T1 sequence: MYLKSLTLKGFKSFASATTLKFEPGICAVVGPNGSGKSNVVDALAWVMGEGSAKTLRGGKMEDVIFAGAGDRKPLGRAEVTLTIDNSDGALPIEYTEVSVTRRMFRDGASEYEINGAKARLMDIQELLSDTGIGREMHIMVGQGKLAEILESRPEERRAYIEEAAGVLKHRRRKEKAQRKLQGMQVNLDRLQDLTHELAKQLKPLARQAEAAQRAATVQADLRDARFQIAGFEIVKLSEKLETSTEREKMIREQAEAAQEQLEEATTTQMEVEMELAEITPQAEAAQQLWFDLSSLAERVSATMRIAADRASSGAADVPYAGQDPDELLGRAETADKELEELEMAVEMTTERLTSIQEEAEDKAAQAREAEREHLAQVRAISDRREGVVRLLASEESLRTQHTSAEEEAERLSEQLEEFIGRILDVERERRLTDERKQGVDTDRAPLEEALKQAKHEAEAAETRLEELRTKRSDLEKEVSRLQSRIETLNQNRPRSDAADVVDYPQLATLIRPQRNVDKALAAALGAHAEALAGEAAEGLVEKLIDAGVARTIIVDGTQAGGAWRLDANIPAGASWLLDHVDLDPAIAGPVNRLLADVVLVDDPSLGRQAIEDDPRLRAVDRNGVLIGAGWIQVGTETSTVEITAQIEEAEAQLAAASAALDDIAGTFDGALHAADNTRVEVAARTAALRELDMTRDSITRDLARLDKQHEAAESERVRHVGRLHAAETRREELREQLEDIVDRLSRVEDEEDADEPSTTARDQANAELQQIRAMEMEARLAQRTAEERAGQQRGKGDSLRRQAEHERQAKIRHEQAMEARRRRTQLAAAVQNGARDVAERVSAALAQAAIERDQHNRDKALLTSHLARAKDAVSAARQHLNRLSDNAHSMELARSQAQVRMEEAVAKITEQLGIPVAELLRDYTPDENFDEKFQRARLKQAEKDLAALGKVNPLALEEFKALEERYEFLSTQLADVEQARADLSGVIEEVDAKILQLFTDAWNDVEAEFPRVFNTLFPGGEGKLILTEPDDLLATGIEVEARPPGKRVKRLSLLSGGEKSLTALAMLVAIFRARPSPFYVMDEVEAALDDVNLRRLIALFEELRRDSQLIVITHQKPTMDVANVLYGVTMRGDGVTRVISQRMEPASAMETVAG

Protein sequences, listed by entry. Tags and fused reporters are not part of them. Lines headed by an entry give the natural chain unless they say otherwise; changes in a name come on top.
UniProt Q8NQK9: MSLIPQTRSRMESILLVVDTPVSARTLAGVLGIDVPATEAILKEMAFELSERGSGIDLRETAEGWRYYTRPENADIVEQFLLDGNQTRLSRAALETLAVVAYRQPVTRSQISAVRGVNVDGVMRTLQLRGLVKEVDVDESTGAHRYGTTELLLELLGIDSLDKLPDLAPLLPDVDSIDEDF
UniProt Q8NQL2: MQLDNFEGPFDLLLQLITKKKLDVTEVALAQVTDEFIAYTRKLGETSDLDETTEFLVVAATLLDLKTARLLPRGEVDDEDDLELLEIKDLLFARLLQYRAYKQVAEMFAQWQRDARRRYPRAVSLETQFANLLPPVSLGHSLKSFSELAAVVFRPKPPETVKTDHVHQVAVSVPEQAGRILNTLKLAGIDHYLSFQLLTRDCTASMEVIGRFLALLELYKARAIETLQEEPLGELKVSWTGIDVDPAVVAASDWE

| Substance | binding |
| --- | --- |
| ParB, endogenous | no binding |
| ScpB, endogenous (from UniProt Q8NQK9) | binds |
| ScpA (kleisin subunit), endogenous (from UniProt Q8NQL2) | binds |

Source: publication PMC7083940
